From US10876076B2, “Detergents and cleaning agents having improved performance” (Henkel AG & Co. KGaA, priority 2016, dated 2020)

Assay: Washing tests, cleaning performance on standardized stains on cotton
Conditions: 40° C., 70 g bleach-free liquid washing agent plus 0.7 g compound in 17 l water of 16° dH, versus washing agent alone
Description: Washing tests were carried out at 40° C. as a triple determination on standardized stains, specified in table 1, on cotton, an aqueous liquid washing agent that is free of bleaching agent (and contains, in addition to water, 5.5 wt. % 7-fold ethoxylated C12/14 fatty alcohol, 5.3 wt. % sodium C9-13 alkylbenzene sulfonate, 4.9 wt. % sodium C12/14 fatty alcohol ether sulfate having 2 EO, 1.8 wt. % citric acid, 3 wt. % C12-18 fatty acid, 0.1 wt. % diethylene triamine penta (methylene phosphonic acid) hepta sodium salt, 1.3 wt. % NaOH, 3.6 wt. % ethanol/glycerol) having a pH of 8.5 having been used and washing liquors having been prepared therewith, the washing liquors consisting of 70 g of the liquid washing agent or 70 g of the liquid washing agent and 0.7 g Si from example 1 in every 17 l water of 16° dH. The evaluation was completed by measuring the color distance according to the L*a*b* vales and the Y values calculated therefrom as a measure for brightness.

**Q.** Which results are given for `CN(C)CCNC(=O)c1ccc(C(=O)NCCN(C)C)c(O)c1O` [S1, 2,3-dihydroxy-N,N′-bis(2-(dimethylamino)ethyl) terephthaldiamide]?
**A.** d(dY) (Bilberry juice stain on cotton): 8.0; d(dY) (Blackcurrant juice stain on cotton): 4.5; d(dY) (Cocoa stain on cotton): 4.6; d(dY) (Coffee stain on cotton): 3.7; d(dY) (Red wine stain on cotton): 3.3
